Measured values: paper PMC10148159

Target: DNA polymerase beta (Pol β) (Homo sapiens) (UniProt P06746)
Assay: single-molecule TIRF
Conditions: 2.5 mM EDTA, very few stable complexes longer than about 1 s, 50 mM Hepes pH 7.4, 150 mM NaCl, 0.1 mg/ml BSA, 0.8% glucose, ~10 mM Trolox, catalase 0.04 mg/ml, glucose oxidase 1 mg/ml, room temperature, recombinant protein, label: 5'-biotin on strand 1 (immobilized), letters put together from the description

Sequence: TGTGTGGAATACAGTGAGCGCAACG (double strand) [undamaged DNA 25-mer]
- binding result: binds more weakly

For at least one entry, the source does not settle the construct or the ends of the probe. The comparison behind a weaker result is the experiment's own reference, which may not be listed here.
